Measurements as given in patent publication US20220195057A1 (LANOVA MEDICINES, published 2022).
Substitutions are numbered along the chain they refer to. No constants are given. Whether binding was seen depends on the method and setting. Some results given as binding are weak or reduced against the parent protein; the word gives no strength.

Protein sequences, listed by entry. Tags and fused reporters are not part of them.
UniProt P51685: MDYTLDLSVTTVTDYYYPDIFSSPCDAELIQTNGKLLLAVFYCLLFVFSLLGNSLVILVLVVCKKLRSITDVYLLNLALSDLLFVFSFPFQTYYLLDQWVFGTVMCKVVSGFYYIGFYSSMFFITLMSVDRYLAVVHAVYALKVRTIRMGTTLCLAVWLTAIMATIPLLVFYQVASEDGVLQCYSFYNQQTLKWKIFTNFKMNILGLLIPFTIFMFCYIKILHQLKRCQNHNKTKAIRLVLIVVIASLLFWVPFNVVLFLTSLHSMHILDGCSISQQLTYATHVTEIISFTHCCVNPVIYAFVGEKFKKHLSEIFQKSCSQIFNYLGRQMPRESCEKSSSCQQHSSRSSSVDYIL

B1: 137-H2L2 (antibody, V domains shown)
VH: EVQLVESGGGLVQPGGSLKLSCAASGFTFNTYAMNWVRQASGKGLEWVGRIRSKANNYATYYADSVKDRFTISRDDSKNTAYLQMNNLKTEDTAVYYCVRDRSRGEDYAMDYWGQGTLVTVSS
VL: DIVMTQSPLSLPVTPGEPASISCRSSKSLLHSNANTYLYWFLQKPGQSPQLLIYRMSNLASGVPDRFSGSGSGTAFTLKISRVEAEDVGVYYCMQHLEYPFTFGQGTKLEIK
notes: Humanized 137D1H10
B2: 137-H3L3 (antibody, V domains shown)
VH: B1 VH with G49A, A81L
VL: B1 VL with A19V
notes: Humanized 137D1H10
B3: 137-H2L3 (antibody, V domains shown)
VH: B1 VH
VL: B1 VL with A19V
notes: Humanized 137D1H10
B4: 88-xi (antibody, V domains shown)
VH: EVQLVETGGGLVQPKGSLKLSCAASGFTFNPNAMNWVRQAPGKGLEWVARIRSKSNNYATYYADSVKDRFTISRDDSQSMLYLQMNNLKTEDTAMYYCVRGKDDGYRHYAMDYWGQGTSVTVSS
VL: DIVMTQAAPSVPVTPGESVSISCRSSKSLLHSNGNTYLYWFLQRPGQSPQLLIYRMSNLASGVPDRFSGSGSGTAFTLRISRVEAEDVGVYYCMQHLEYPFTFGAGTKLELK
notes: also called 88D2C6; chimeric 88D2C6
B5: 137-xi (antibody, V domains shown)
VH: EVQLVESGGGLVQPKGSLKLSCTASGFTFNTYAMNWVRQAPGKGLEWVARIRSKANNYATYYADSVKDRFTISRDDSQRILYLQMNNLKAEDTAMYYCVRDRSRGEDYAMDYWGQGTSVTVSS
VL: B4 VL
notes: also called 137D1H10; chimeric 137D1H10
B6: 88-H2L2 (antibody, V domains shown)
VH: B4 VH with T7S, K15G, P41S, A49G, Q78K, S79N, M80T, L81A, M95V, S119T
VL: B1 VL with Q105G, L109V
notes: Humanized 88D2C6
B7: 88-H3L2 (antibody, V domains shown)
VH: B4 VH with T7S, K15G, P41S, Q78K, S79N, M80T, M95V, S119T
VL: B1 VL with Q105G, L109V
notes: Humanized 88D2C6
B8: 88-H2L3 (antibody, V domains shown)
VH: B4 VH with T7S, K15G, P41S, A49G, Q78K, S79N, M80T, L81A, M95V, S119T
VL: B1 VL with S7A, A19V, Q105G
notes: Humanized 88D2C6
B9: 88-H1L2 (antibody, V domains shown)
VH: EVQLVESGGGLVQPGGSLKLSCAASGFTFNPNAMNWVRQASGKGLEWVGRIRSKSNNYATYYADSVKDRFTISRDDSKNTAYLQMNSLKTEDTAVYYCTRGKDDGYRHYAMDYWGQGTTVTVSS
VL: B1 VL with Q105G, L109V
notes: Humanized 88D2C6
B10: 88-H1L3 (antibody, V domains shown)
VH: B9 VH
VL: B1 VL with S7A, A19V, Q105G
notes: Humanized 88D2C6
B11: 88-H3L3 (antibody, V domains shown)
VH: B9 VH with G49A, A81L, S87N, T99V
VL: B1 VL with S7A, A19V, Q105G
notes: Humanized 88D2C6

Biological target: human chemokine (C-C motif) receptor 8 (CCR8) protein (human) (UniProt P51685)
Experiment: cell binding, CCR8-expressing cells (FIG. 4)

binding, binds:
B1
B2
B3

Biological target: human chemokine (C-C motif) receptor 8 (CCR8) protein (human) (UniProt P51685)
Experiment: cell binding, U2OS cells expressing human CCR8, chimeric antibodies

binding, binds:
B4
B5

Biological target: human chemokine (C-C motif) receptor 8 (CCR8) protein (human) (UniProt P51685)
Experiment: cell binding, CCR8-expressing cells (FIG. 3)

binding, binds:
B6
B7
B8
B9
B10
B11

Biological target: human chemokine (C-C motif) receptor 8 (CCR8) protein (human) (UniProt P51685)
Experiment: cell binding, CCR8-expressing cells

binding, binds:
B6
B7
B8
B9
B10
B11
